Test results published in PubChem BioAssay AID493014 (National Center for Advancing Translational Sciences (NCATS), 2011).
Screen size: about 340,000 compounds; about 170 (0.05%) were called active. This list was built around the results that the source calls inconclusive (neither active nor inactive); the mix of calls is not that of the screen. Calls follow the shape of the dose curve; as a rule, active = well fitted inhibition curve with a large enough effect in the signal ratio, with a control signal flat (not every such curve was filed as active); inconclusive = small, poorly fitted or top-dose-only effect, or effect the other way, or a change in a side signal; inactive = flat fitted curve, though single readings scatter; the % refers to the signal ratio. Potencies beside an inconclusive call are fits to weak or partial responses and may not hold up.

Assay: qHTS Assay to Find Inhibitors of Chronic Active B-Cell Receptor Signaling;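 as to activity change, negative = inhibition: plate controls were basal doxycycline-induced cells for no effect and cells given 10 µM MG132 for full effect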
Settings: ABC-DLBCL IkBa-CBG/CBR reporter, luminescence ratio (green luciferase fused to IkBa over red control in TMD8 lymphoma cells), 4 h; activity change, negative = inhibition: at 46.1 µM (top of the series)
Outline: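 Doxycycline induced both beetle luciferases in TMD8 lymphoma cells; IKK-driven degradation limits the IkappaBalpha-fused green signal, while red luminescence normalises for cell number and nonspecific effects. Compounds tested up to 46 uM, 4 hrs.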
Potency is read from the fitted curve at half-maximal effect.

Row | SMILES | activity change, negative = inhibition | Potency
1 | O=c1cc2c(nn1Cc1ccc(Cl)cc1Cl)-c1ccccc1CC2 | inactive: -14.6% | 
2 | Cc1c(C(=O)NCCN2C(=O)S/C(=C\c3cccnc3)C2=O)cccc1[N+](=O)[O-] |  | inconclusive: 12.6 µM [falling, partial curve]
3 | Cc1ccc2nc(NC(=O)C3CCN(S(=O)(=O)c4cccc5nsnc45)CC3)sc2c1 | inconclusive: 7.05% | 
4 | CCN(CC)CCNC(=O)Cn1c(=O)c2cccn2c2ccc(F)cc21 | inactive: 9% | 
5 | C#CCNC(=O)C1=C[C@@H](c2csc3ccccc23)[C@H](CCCO)[C@@H](OCC)O1 | inconclusive: 3.31% | 
6 | COc1ccc(NC(=O)Nc2ccc(Br)c(C)c2)cc1 | inconclusive: 15% | 
7 | CC/C(=N\Nc1ccc([N+](=O)[O-])cc1)c1ccccc1 | inconclusive: -2.5% | 
8 | COc1ccc(NC(=O)Nc2ccc3nonc3c2)cc1 |  | inconclusive: 20 µM [falling, partial curve, poor fit]
9 | CN(C)/C=N/c1ncnc2c1cnn2-c1ccc(C(F)(F)F)cn1 | inconclusive: -0.192% | 
10 | CCSc1nnc(NC(=O)CSc2nnc(C)c(=O)n2N)s1 | inconclusive: -14.9% | 
11 | Cc1ccc(S(=O)(=O)NNC(=O)c2cccs2)c(C)c1 | inactive: 0.543% | 
12 | Nc1ccccc1C(=O)N1O[C@@H]2C=C[C@H]1CC2 | inconclusive: 1.9% | 
13 | O=C(CC1CC2CCC1C2)OCC(=O)c1c[nH]c2ccccc12 (centres undefined) | inconclusive: 2.91% | 
14 | CCC(C(=O)Nc1ccc(C)cc1)c1ccccc1 (centres undefined) | inactive: 1.56% | 
15 | O=C(Nc1ccccc1)Oc1ccc[nH]c1=O | inconclusive: 6.55% | 
16 | COc1ccc(C(=O)NC2CCCN(Cc3ccccc3F)C2)c(OC)c1OC (centres undefined) | inactive: -0.815% | 
17 | Cc1c(Cc2ccc3c(c2)OCO3)sc(NC(=O)c2ccc3ccccc3c2)c1C(N)=O | inconclusive: 4.42% | 
18 | COc1ccc(C(CCN(Cc2ccc(OC)c(OC)c2)C(=O)CCl)c2ccccc2)cc1 (centres undefined) |  | inconclusive: 20.6 µM [falling, partial curve]
19 | CN=C1S/C(=C\c2ccc(SC)cc2)C(=O)N1C | inconclusive: 11.3% | 
20 | CCN(CC)S(=O)(=O)c1ccc2c(c1)N(CC(=O)N1CCN(c3cccc(Cl)c3)CC1)C(=O)CO2 | inactive: 20.8% | 
21 | COc1ccc(-c2ocnc2C(=O)N2CCN(Cc3cccnc3)CC2)cc1 | inactive: 20.8% | 
22 | COC(=O)c1ccccc1-c1c2ccc(=N)cc-2oc2cc(N)ccc12 | inconclusive: 4.66% | 
23 | O=c1c(S(=O)(=O)c2ccc(Cl)cc2)cn(Cc2cccc(F)c2)c2ccc(F)cc12 | inconclusive: 9.96% | 
24 | CC(=O)Nc1ccc(N=NC2C(=O)N(C(N)=S)N=C2C)cc1 (centres undefined) | inconclusive: 0.906% | 
25 | COC(=O)C1=C(C)N(Cc2ccccc2)C(=NCCCCO)N[C@H]1CCc1ccccc1 |  | inconclusive: 12.6 µM [falling, partial curve, poor fit]
26 | CCOC(=O)COc1cccc2c(=O)n(CC(=O)NCc3ccc(F)cc3)ccc12 |  | inconclusive: 0.891 µM [falling, full curve]
27 | c1nc(NCc2ccc3c(c2)OCO3)c2cc(-c3ccoc3)ccc2n1 |  | inconclusive: 13 µM [falling, partial curve, poor fit]

Row | SMILES | activity change, negative = inhibition | Potency
28 | CCC(=O)Nc1ccc2nc(C3CC3)n(Cc3ccc(C(C)(C)C)cc3)c(=O)c2c1 | inactive: -0.172% | 
29 | O=C(COC(=O)c1ccccc1)Nc1ncc([N+](=O)[O-])s1 | inconclusive: 0.217% | 
30 | CN1CCC(C(=O)N2CCCC(C(=O)c3ccc4c5c(cccc35)CC4)C2)CC1 (centres undefined) | inactive: -3.45% | 
31 | O=C(Nc1ccc(Br)cc1F)c1sccc1-n1cccc1 | inconclusive: 3.83% | 
32 | O=C(Nc1ccc(-n2cnnn2)cc1)c1cc(S(=O)(=O)N2CCCC2)ccc1Cl | inactive: 4.24% | 
33 | CCOC(=O)CCCn1nc(C)n2c(cc3sccc32)c1=O |  | inconclusive: 6.51 µM [falling, single point]
34 | CCc1nnc(NC(=O)CSc2nc3cccnc3n2Cc2ccccc2)s1 |  | inconclusive: 2.59 µM [falling, partial curve, poor fit]
35 | Oc1ccccc1-c1nnc(SCCN2CCOCC2)n1Cc1ccccc1 | inconclusive: -17.9% | 
36 | Cc1cc(-c2ccccc2)nc2oc3c(c12)NC(=O)CN(c1ccccc1)C3=O | inconclusive: -0.607% | 
37 | COc1ccc(Cc2nnc(NC(=O)c3cc(OC)c(OC)c(OC)c3)s2)cc1 | inconclusive: -16.7% | 
38 | CC(CCc1ccccc1)NC(=O)COC(=O)c1ccccc1Br (centres undefined) | inactive: -17.2% | 
39 | COc1cc(/C=N/NS(=O)(=O)c2ccc(C)cc2)ccc1OCc1cccc(C(=O)O)c1 |  | inconclusive: 31.6 µM [rising, single point]
40 | S=C(NCCc1ccccn1)Nc1ccccc1 |  | inconclusive: 22.4 µM [falling, single point]
41 | CN1CCN(c2ccc(NC(=O)CSc3nnnn3-c3ccccc3Cl)cc2)CC1 | inactive: 14.3% | 
42 | COc1ccccc1CCNC(=O)c1ccc(Br)s1 |  | inconclusive: 15.8 µM [falling, single point]
43 | O=C(CCCN1C(=O)S/C(=C/c2ccccc2)C1=S)Nc1ccc(C(=O)O)cc1 |  | inconclusive: 3.98 µM [falling, partial curve, poor fit]
44 | CCOC(=O)c1c(NC(=S)Nc2ccccc2)sc2c1CCN(CC)C2 | inactive: 0.302% | 
45 | CCC(C)NS(=O)(=O)c1ccc(NC(C)=O)cc1 (centres undefined) | inconclusive: -2.88% | 
46 | CC(=O)[C@@H]1[C@@H]2C(=O)N(C3CCCCC3)C(=O)[C@@H]2C2c3ccccc3C=CN21 (some centres undefined) |  | inconclusive: 17.8 µM [falling, single point]
47 | CN1CCN(CCNC(=O)Nc2ccccc2C(F)(F)F)CC1 | inactive: 2.67% | 
48 | Cc1ccc(C(=O)N[C@@H](C)CN2C3=NC[C@H](C)N3C[C@H]2Cc2ccc(O)cc2)cc1Br | inconclusive: -1.7% | 
49 | COc1ccc(C2CC(=O)Oc3cc(OC)ccc32)cc1 (centres undefined) | inconclusive: 0.175% | 
50 | Cc1cccc(C)c1OCc1nnc(SCC(=O)Nc2nccs2)o1 |  | inconclusive: 23.1 µM [falling, single point]
51 | CCNc1ccc(C(=O)OCC)cc1NC(=O)c1cccc(N(C)C)c1 | inconclusive: -14.8% | 
52 | CCCC(=O)OCC(=O)Nc1ccc(N=Nc2ccccc2)cc1 | inconclusive: 2.88% | 
53 | C/C(=N\NC(=S)Nc1cccc(C)c1)c1cccc(N)c1 |  | inconclusive: 32.6 µM [falling, partial curve, poor fit]
54 | c1ccc(-n2ncc3c(NCc4ccco4)ncnc32)cc1 |  | inconclusive: 0.651 µM [rising, partial curve, poor fit]

3 entries from above, as labelled records:
CCCC(=O)OCC(=O)Nc1ccc(N=Nc2ccccc2)cc1
  activity change, negative = inhibition: inconclusive: 2.88%
C/C(=N\NC(=S)Nc1cccc(C)c1)c1cccc(N)c1
  Potency: inconclusive: 32.6 µM [falling, partial curve, poor fit]
c1ccc(-n2ncc3c(NCc4ccco4)ncnc32)cc1
  Potency: inconclusive: 0.651 µM [rising, partial curve, poor fit]

More results follow.

Row | SMILES | activity change, negative = inhibition | Potency
55 | COc1ccc(/C=N/c2c(-c3ccc(OC)cc3)nc3n2CCS3)cc1 | inconclusive: 13% | 
56 | CCOc1ccccc1CNc1nnnn1C | inactive: -6.85% | 
57 | c1ccc(-c2nnc(OCc3cccnc3)c3ccccc23)cc1 | inconclusive: 1.11% | 
58 | S=C(Nc1ccc2nccnc2c1)N1CCOCC1 |  | inconclusive: 35.5 µM [falling, single point]
59 | O=C(CNC(=O)C12CC3CC(CC(C3)C1)C2)NCc1ccccc1 | inactive: 1.04% | 
60 | Cc1ccc(NC(=O)c2ccccc2[N+](=O)[O-])nc1 | inconclusive: -13.8% | 
61 | Oc1ccc(-c2nc3ccccc3s2)c(O)c1 |  | inconclusive: 0.224 µM [rising, full curve, poor fit]
62 | O=C(c1cc(-c2ccccc2O)on1)N1CCc2ccccc2C1 | inconclusive: -23.8% | 
63 | Cc1cccc(C)c1OCC(=O)NCc1nnc(SCC(=O)NC2CCCCC2)n1C | inconclusive: -9.68% | 
64 | CC(=O)c1ccccc1OCC(O)CN1CCN(C(c2ccccc2)c2ccccc2)CC1 (centres undefined) |  | inconclusive: 29.1 µM [falling, single point]
65 | O=C(Nc1ccc(C(=O)N2CCCCC2)cc1)C1=CSCCO1 | inconclusive: 0.423% | 
66 | Cc1ccc2nc(NC(=O)COC(=O)CSc3nc(C)cc(C)n3)sc2c1 | inactive: -15% | 
67 | O=C(C1CCN(Cc2ccc(F)cc2)CC1)N1CCN(C/C=C/c2ccccc2)CC1 | inconclusive: -17.7% | 
68 | Cc1cc2nccc(-c3cccnc3)n2n1 | inconclusive: -17.1% | 
69 | CCOC(=O)c1cnc2c(cnn2C)c1NCCC#N | inconclusive: 9.74% | 
70 | CC(C)(C)NC(=O)/C(=C/c1ccco1)c1ccccc1 | inactive: -0.317% | 
71 | O=C(CN1C(=O)NC2(CCCc3ccccc32)C1=O)c1ccc(F)c(F)c1 (centres undefined) | inconclusive: -7.99% | 
72 | Cc1ccc(S(=O)(=O)Cc2ccccc2Cl)cc1 | inactive: -14.5% | 
73 | Cc1csc2ncc(C(=O)NCCC(c3ccccc3)c3ccccc3)c(=O)n12 | inconclusive: -0.0588% | 
74 | CCCCN1C(=O)C(=O)N(CC(=O)N2N=C3/C(=C/c4ccco4)CCCC3C2c2ccco2)C1=O (centres undefined) |  | inconclusive: 3.55 µM [rising, partial curve, poor fit]
75 | CCC(C(=O)NCc1ccco1)N(C(=O)CNS(=O)(=O)c1ccccc1)c1ccc(OC)cc1 (centres undefined) | inconclusive: 18.7% | 
76 | O=C(NC(Nc1ncc(S(=O)(=O)c2ccc([N+](=O)[O-])cc2)s1)(C(F)(F)F)C(F)(F)F)c1ccc(Cl)cc1 |  | inconclusive: 7.31 µM [rising, partial curve]
77 | Cc1cccc(-n2cc(CN3CCN(Cc4nccn4C)CC3)c(-c3cccc(F)c3)n2)c1 |  | inconclusive: 2.24 µM [falling, partial curve, poor fit]
78 | O=S(=O)(NC1CCCCC1)c1ccc(F)c2ccccc12 |  | inconclusive: 20.6 µM [rising, partial curve, poor fit]
79 | Cc1ccc(NC(=O)CSC2=C(C#N)C(c3ccco3)C3=C(CCCC3=O)N2)cc1 (centres undefined) |  | inconclusive: 22.4 µM [falling, partial curve, poor fit]
